Publication PMC7500955

Columns and labels:
[1] = biological target: pure bovine brain tubulin (Bovine taurus); test: co-sedimentation; tubulin-binding assay: free tubulin at 10 µM with around 15 µM of each protein construct in MES buffer, 15 min on ice; 13,000 x g, 4°C, 20 min; supernatant and pellet on Coomassie-stained SDS-PAGE; both purified
[2] = biological target: pure bovine brain tubulin (Bovine taurus); test: co-sedimentation; microtubule-pelleting assay: taxol-stabilized microtubules assembled in BRB80 (80 mM PIPES-KOH pH 6.8, 1 mM MgCl2, 1 mM EGTA) from bovine brain tubulin at 1 mg/mL; 50 µL MTs with 20 µL protein at 1 mg/mL, 2 hr, room temperature; centrifuged on a taxol-glycerol cushion (8000 rpm, 30°C, 20 min); supernatant and pellet on Coomassie-stained SDS-PAGE; both purified

- binding [1]: binds
- binding [2]: binds
B1: drPOC16(1-243) (domain or fragment, UniProt F1RA29 1-243)
chain: MSSKALWQQPYVNIFKHMKIEEWKKVSKEGDVSLYMDKNLKCSVFSIRGSIQASNYILLPKTSSQTLGLTGRYLYLLFKPSPNKHFIVHLDIAAEEGQVIRVSFSNLFKEFKSTATWLQFPFLCGAAHGSVDENTSTTAKQGLVGPAPWSTRWTCLTMDLRYVLSVYLNRTHSHLKSIKLCANMSVKNIITSDLLFDPGLSFSEFRQSGVMLPDGSAPMPREMCFPVPKGQSWHHLYDYIRFP

- binding [1]: binds
- binding [2]: binds
B2: xtPOC16(1-245) (domain or fragment, UniProt A0JP70 1-245)
chain: MAGVWQHPFVNVFKHLRLEEWKKSSKEGDVTSVMDKTLKCTVYRIRGSIPAGNYIQLPKTSSQSLGLTGRYLYILFKPLPGKHFVVHIDVSAEDGQTVRISFSNLFKEFKSTATWLQFPFVCGAIKGSVYDSTAQGARQGMVGPAPSGSRWTCLLLDVQYILSLYLSRRYSHLRSAKLCSNLLVRNLMTSDLLFNPEVNFMEARHAKTLPDGISPMPREMSFPVPKGEKWHDLYDFIMFPSDSSK

- binding [1]: binds
- binding [2]: binds
B3: WDR90-N(1-225) (domain or fragment, UniProt Q96KV7-1 1-225)
chain: MARAWQHPFLNVFRHFRVDEWKRSAKQGDVAVVTDKTLKGAVYRIRGSVSAANYIQLPKSSTQSLGLTGRYLYVLFRPLPSKHFVIHLDVSSKDNQVIRVSFSNLFKEFKSTATWLQFPLVLEARTPQRDLVGLAPSGARWTCLQLDLQDVLLVYLNRCYGHLKSIRLCASLLVRNLYTSDLCFEPAISGAQWAKLPVTPMPREMAFPVPKGESWHDRYIHVRFP

No constants are given. Whether binding was seen depends on the method and setting. A result given as binding can be weak or reduced; the word gives no strength. One block for each binder: values may come before it.
